Data taken from patent US20050000529A1, “Method and compositions for imparting cooling effect to tobacco products” (priority 2001, published 2005).

Experiment: Cooling threshold in tap water, triangle test
Type: in vivo
Conditions: ratio of cooling threshold to odor threshold

Question: With `CC1=C(N2CCCC2)C(=O)CC1` [Compound 1, 3-methyl-2-(1-pyrrolidinyl)-2-cyclopenten-1-one] as the compound, how does the “Ratio (cool/odor)” value read?
Answer: The value was 0.8.

Question: With `CC1CC=C(N2CCCC2)C1=O` (stereo not shown) [Compound 2, 5-methyl-2-(1-pyrrolidinyl)-2-cyclopenten-1-one] as the compound, how does the “Ratio (cool/odor)” value read?
Answer: The value was 1.7.

Question: Which “Ratio (cool/odor)” value does the source give for `CC1=C(N2CCCCC2)C(=O)CC1` [Compound 3, 3-methyl-2-(1-piperidinyl)-2-cyclopenten-1-one] here?
Answer: Its value is 0.8.

Question: With `CCN(CC)C1=C(C)CCC1=O` [Compound 4, 3-methyl-2-diethylamino-2-cyclopenten-1-one] as the compound, how does the “Ratio (cool/odor)” value read?
Answer: The value was 10.0.

Question: Which “Ratio (cool/odor)” value does the source give for `CC1CC=C(N2CCCCC2)C1=O` (stereo not shown) [Compound 5, 5-methyl-2-(1-piperidinyl)-2-cyclopenten-1-one] here?
Answer: The value was 2.7.

Question: With `CCN(CC)C1=CCC(C)C1=O` (stereo not shown) [Compound 6, 5-methyl-2-diethylamino-2-cyclopenten-1-one] as the compound, how does the “Ratio (cool/odor)” value read?
Answer: Its value is 2.1.

Question: For `CCCCN(CCCC)C1=CCC(C)C1=O` (stereo not shown) [Compound 7, 5-methyl-2-dibutylamino-2-cyclopenten-1-one], which “Ratio (cool/odor)” value is on record?
Answer: The value was 16.0.

Question: For `CCC1CC=C(N2CCCC2)C1=O` (stereo not shown) [Compound 9, 5-ethyl-2-(1-pyrrolidinyl)-2-cyclopenten-1-one], which “Ratio (cool/odor)” value is on record?
Answer: Its value is 2.0.

Question: Which “Ratio (cool/odor)” value does the source give for `CC1C=C(N2CCCC2)C(=O)C1C` (stereo not shown) [Compound 10, (E)-4,5-dimethyl-2-(1-pyrrolidinyl)-2-cyclopenten-1-one] here?
Answer: Its value is 0.5.

Question: Which “Ratio (cool/odor)” value does the source give for `CC1=C(N2CCCC2)C(=O)C(C)C1` (stereo not shown) [Compound 11, 3,5-dimethyl-2-(1-pyrrolidinyl)-2-cyclopenten-1-one] here?
Answer: Its value is 2.0.

Question: For `CC1=C(N2CCCC2)C(=O)CC1C` (stereo not shown) [Compound 12, 3,4-dimethyl-2-(1-pyrrolidinyl)-2-cyclopenten-1-one], which “Ratio (cool/odor)” value is on record?
Answer: Its value is 2.0.

Question: For `CC1=C(N2CCCC2)CCC1=O` [Compound 14, 2-methyl-3-(1-pyrrolidinyl)-2-cyclopenten-1-one], which “Ratio (cool/odor)” value is on record?
Answer: Its value is 8.0.

Question: For `O=C1CCCC=C1N1CCCC1` [Compound 15, 2-(1-pyrrolidinyl)-2-cyclohexen-1-one], which “Ratio (cool/odor)” value is on record?
Answer: Its value is 2.0.

Question: For `CC1=C(N2CCCC2)C(=O)CCC1` [Compound 16, 3-methyl-2-(1-pyrrolidinyl)-2-cyclohexen-1-one], which “Ratio (cool/odor)” value is on record?
Answer: The value was 32.0.

Question: For `CC1=C(N2CCCC2)C(=O)CC(C)(C)C1` [Compound 17, 3,5,5-trimethyl-2-(1-pyrrolidinyl)-2-cyclohexen-1-one], which “Ratio (cool/odor)” value is on record?
Answer: Its value is 8.0.

Question: With `CC1CCC=C(N2CCCC2)C1=O` (stereo not shown) [Compound 18, 6-methyl-2-(1-pyrrolidinyl)-2-cyclohexen-1-one] as the compound, how does the “Ratio (cool/odor)” value read?
Answer: The value was 4.0.

Question: For `CC1CC(C)(C)C=C(N2CCCC2)C1=O` (stereo not shown) [Compound 19, 4,4,6-trimethyl-2-(1-pyrrolidinyl)-2-cyclohexen-1-one], which “Ratio (cool/odor)” value is on record?
Answer: The value was 4.0.

Question: With `CC1CC=C(N2CCOCC2)C1=O` (stereo not shown) [Compound 20, 5-methyl-2-(1-morpholino)-2-cyclopenten-1-one] as the compound, how does the “Ratio (cool/odor)” value read?
Answer: The value was 0.5.

Question: With `COC(=O)C1CCCN1C1=CC[C@H](C)C1=O` (stereo partly drawn) [Compound 21, (S)-5-methyl-2-(2-methoxycarbonyl-1-pyrrolidinyl)-2-cyclopenten-1-one] as the compound, how does the “Ratio (cool/odor)” value read?
Answer: The value was <1.

Question: For `CC1=C(N2CCC[C@H]2C(=O)O)C(=O)CC1` [Compound 22, (S)-3-methyl-2-(2-carboxy-l-pyrrolidinyl)-2-cyclopenten-1-one], which “Ratio (cool/odor)” value is on record?
Answer: The value was <1.

Question: For `CC1=C(N2CCCC2)C(=O)C(C)O1` (stereo not drawn) [Compound 24, 2,5-dimethyl-4-(l-pyrrolidinyl)-3-(2H)-furanone], which “Ratio (cool/odor)” value is on record?
Answer: Its value is 2.7.

Question: For `CC1=C(N2CCCC2)C(=O)OC1C` (stereo not shown) [Compound 26, 4,5-dimethyl-3-(1-pyrrolidinyl)-2-(5H)-furanone], which “Ratio (cool/odor)” value is on record?
Answer: The value was <0.1.
